Measured data: PubChem BioAssay AID602196 (INSERM, 2012)

Test: 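Genes whose knock-down alters cisplatin killing of lung cancer cells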
Cells: human A549 lung cancer cells
Knock-down reagent: siRNA pair against human genes
Timing: 48 h transfection before cisplatin; time from cisplatin to read-out not stated
Conditions: cisplatin at a dose killing half of control-siRNA cells; exact dose and duration not given
Read-out: 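Cisplatin cell death as a shift from the 50% death seen with control siRNA; siRNAs toxic or growth-blocking alone scored 0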
Scale: two-siRNA summed score (-2 to +2): higher = both siRNAs protect from cisplatin killing; -2 means both sensitise; mean protection from cisplatin (shift in death) and protection from cisplatin (shift in death), siRNA C and protection from cisplatin (shift in death), siRNA D: higher = protection from cisplatin killing
Rule for the call: 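siRNAs harmful alone (LDH or WST-1) get 0; others get +1 for less and -1 for more cisplatin killing; genes are active when the two siRNAs give the same sign, summing to ±2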
Calls: active = both siRNAs shift cisplatin killing the same way; inactive = no consistent shift, or siRNA harmful alone
Shown is a random part of about 23,000 reagents. Of all reagents, 455 (2%) were called active. 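Active includes both protection and sensitisation; some change values fall well beyond the stated -50 to +50 range.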 Not given: the amount of reagent.

two-siRNA summed score (-2 to +2)	mean protection from cisplatin (shift in death) (%)	protection from cisplatin (shift in death), siRNA C (%)	protection from cisplatin (shift in death), siRNA D (%)	Call	gene
0	2.2	8.7	-4.3	inactive	LSM6
0	5.8	10.5	1.1	inactive	PANK3 (pantothenate kinase 3)
0	-7.1	-10.4	-3.8	inactive	THPO (thrombopoietin)
1	-5.3	14.4	-24.9	inactive	LSM10 (LSM10, U7 small nuclear RNA associated)
1	16	14.2	17.9	inactive	MORN2 (MORN repeat containing 2)
1	12.8	3.3	22.2	inactive	LOC387994
1	2	12.6	-8.7	inactive	LOC387649
0	-11.1	-13.8	-8.4	inactive	YAF2 (YY1 associated factor 2)
0	3.5	7.9	-0.8	inactive	OR56B4 (olfactory receptor family 56 subfamily B member 4)
0	3.9	9.4	-1.7	inactive	GNRHR (gonadotropin releasing hormone receptor)
0	-0.5	8.8	-9.8	inactive	PPP3R1 (protein phosphatase 3 regulatory subunit B, alpha)
-1	-7	3	-17	inactive	CDIN1 (CDAN1 interacting nuclease 1)
0	-2.6	-23.1	17.9	inactive	LPXN (leupaxin)
0	4.1	4.4	3.8	inactive	ARMC3 (armadillo repeat containing 3)
1	12.4	11.4	13.4	inactive	PTCHD1 (patched domain containing 1)
0	-4.5	9.1	-18.1	inactive	SLC4A7
-1	-6.6	6.7	-19.9	inactive	SLC10A5
-2	-14.3	-16.2	-12.5	active	DEFB1 (defensin beta 1)
0	-3	-4	-2	inactive	CD40LG (CD40 ligand)
0	8.3	-8.5	25.1	inactive	EEF1A2 (eukaryotic translation elongation factor 1 alpha 2)
0	4.4	-6.2	15	inactive	TPPP3 (tubulin polymerization promoting protein family member 3)
0	16.2	19.2	13.2	inactive	SFI1 (SFI1 centrin binding protein)
0	-1.4	-2.8	0.1	inactive	APOO (apolipoprotein O)
0	-5	-7.1	-2.9	inactive	SERPINE2 (serpin family E member 2)
0	27.8	42.4	13.2	inactive	ARHGAP23 (Rho GTPase activating protein 23)
0	-17.8	9.1	-44.8	inactive	NCSTN (nicastrin)
-1	-13.1	-0.4	-25.9	inactive	PER2 (period circadian regulator 2)
0	3.1	1.7	4.6	inactive	KLHDC3 (kelch domain containing 3)
0	30.9	42.5	19.2	inactive	H2BC11 (H2B clustered histone 11)
1	13	11.6	14.4	inactive	HOOK2 (hook microtubule tethering protein 2)
-1	-12.3	-12.3	-12.4	inactive	RAMP2 (receptor activity modifying protein 2)
2	33.3	30.4	36.1	active	FN3KRP (fructosamine 3 kinase related protein)
0	1.1	-4.7	6.9	inactive	PIGYP1 (PIGY pseudogene 1)
0	-1.3	-10.5	8	inactive	TUT4 (terminal uridylyl transferase 4)
0	6.6	0.9	12.4	inactive	RIBC2 (RIB43A domain with coiled-coils 2)
0	12.3	17.3	7.3	inactive	MYH11 (myosin heavy chain 11)
0	0.8	8	-6.4	inactive	ZDHHC18 (zDHHC palmitoyltransferase 18)
1	27	18.5	35.6	inactive	CFAP410 (cilia and flagella associated protein 410)
0	7.1	5.6	8.5	inactive	GNL3L (G protein nucleolar 3 like)
1	5.7	-7.5	18.9	inactive	CST6 (cystatin E/M)
0	3.5	-11	18	inactive	ADAM30 (ADAM metallopeptidase domain 30)
0	17.9	14.4	21.3	inactive	LOC441535
0	6.3	6.8	5.9	inactive	UBQLN4P1 (ubiquilin 4 pseudogene 1)
0	20.8	21.7	19.9	inactive	LOC440783
1	12.2	16.5	7.9	inactive	KRTAP15-1 (keratin associated protein 15-1)
-2	-17.4	-11.5	-23.3	active	CLIC1 (CLIC family member 1)
0	5.6	4.4	6.9	inactive	MYL10 (myosin light chain 10)
1	3.2	10.4	-4	inactive	ADH7 (alcohol dehydrogenase 7 (class IV), mu or sigma polypeptide)
0	8	14.2	1.9	inactive	OR2B2 (olfactory receptor family 2 subfamily B member 2)
0	9.7	0.1	19.4	inactive	DBNDD2 (dysbindin domain containing 2)
0	12	10.9	13.1	inactive	CSTF1 (cleavage stimulation factor subunit 1)
0	4.1	10.1	-2	inactive	CTHRC1 (collagen triple helix repeat containing 1)
0	1.2	-0.7	3	inactive	RAD1 (RAD1 checkpoint DNA exonuclease)
0	11.1	1.2	20.9	inactive	OR10H4 (olfactory receptor family 10 subfamily H member 4)
0	-0.6	1.9	-3.1	inactive	ABRACL (ABRA C-terminal like)
0	2.7	7.4	-2.1	inactive	LOC387942
0	7.7	16.8	-1.4	inactive	TBL1Y (transducin beta like 1 Y-linked)
-1	-2.6	-10.5	5.3	inactive	HIPK3 (homeodomain interacting protein kinase 3)
0	-5.8	16.6	-28.1	inactive	TUBB (tubulin beta class I)
0	-1.2	-4.5	2	inactive	KIR2DL4
1	11.6	10.1	13.2	inactive	LOC442605
0	5.7	15.3	-4	inactive	LOC389734
0	-1.2	-4.9	2.6	inactive	C14orf119 (chromosome 14 open reading frame 119)
0	13.3	21.1	5.5	inactive	NEURL4 (neuralized E3 ubiquitin protein ligase 4)
0	-16.3	-7.9	-24.7	inactive	SPAG5 (sperm associated antigen 5)
1	18.7	17.1	20.3	inactive	LOC203604
0	8	10.5	5.5	inactive	PCDH10 (protocadherin 10)
1	25.8	24.2	27.5	inactive	LOC284390
1	35	36.6	33.3	inactive	LOC441802
-1	-2	-11.8	7.7	inactive	CEP104 (centrosomal protein 104)
1	11.3	20.4	2.2	inactive	RHBDD1 (rhomboid domain containing 1)
-1	-8.8	-21.1	3.4	inactive	LOC389833
1	19.8	28.7	10.9	inactive	LOC440347
